Assay results as given in PMC9670113.
Results are given in words; binding and its absence hold for the method and conditions named. Binding seen in cells or lysates may run through a third protein. Some results given as binding are weak or reduced against the parent protein; the word gives no strength.

Chains of the proteins cited; added tags and fusions are not shown.
UniProt Q9WTS5: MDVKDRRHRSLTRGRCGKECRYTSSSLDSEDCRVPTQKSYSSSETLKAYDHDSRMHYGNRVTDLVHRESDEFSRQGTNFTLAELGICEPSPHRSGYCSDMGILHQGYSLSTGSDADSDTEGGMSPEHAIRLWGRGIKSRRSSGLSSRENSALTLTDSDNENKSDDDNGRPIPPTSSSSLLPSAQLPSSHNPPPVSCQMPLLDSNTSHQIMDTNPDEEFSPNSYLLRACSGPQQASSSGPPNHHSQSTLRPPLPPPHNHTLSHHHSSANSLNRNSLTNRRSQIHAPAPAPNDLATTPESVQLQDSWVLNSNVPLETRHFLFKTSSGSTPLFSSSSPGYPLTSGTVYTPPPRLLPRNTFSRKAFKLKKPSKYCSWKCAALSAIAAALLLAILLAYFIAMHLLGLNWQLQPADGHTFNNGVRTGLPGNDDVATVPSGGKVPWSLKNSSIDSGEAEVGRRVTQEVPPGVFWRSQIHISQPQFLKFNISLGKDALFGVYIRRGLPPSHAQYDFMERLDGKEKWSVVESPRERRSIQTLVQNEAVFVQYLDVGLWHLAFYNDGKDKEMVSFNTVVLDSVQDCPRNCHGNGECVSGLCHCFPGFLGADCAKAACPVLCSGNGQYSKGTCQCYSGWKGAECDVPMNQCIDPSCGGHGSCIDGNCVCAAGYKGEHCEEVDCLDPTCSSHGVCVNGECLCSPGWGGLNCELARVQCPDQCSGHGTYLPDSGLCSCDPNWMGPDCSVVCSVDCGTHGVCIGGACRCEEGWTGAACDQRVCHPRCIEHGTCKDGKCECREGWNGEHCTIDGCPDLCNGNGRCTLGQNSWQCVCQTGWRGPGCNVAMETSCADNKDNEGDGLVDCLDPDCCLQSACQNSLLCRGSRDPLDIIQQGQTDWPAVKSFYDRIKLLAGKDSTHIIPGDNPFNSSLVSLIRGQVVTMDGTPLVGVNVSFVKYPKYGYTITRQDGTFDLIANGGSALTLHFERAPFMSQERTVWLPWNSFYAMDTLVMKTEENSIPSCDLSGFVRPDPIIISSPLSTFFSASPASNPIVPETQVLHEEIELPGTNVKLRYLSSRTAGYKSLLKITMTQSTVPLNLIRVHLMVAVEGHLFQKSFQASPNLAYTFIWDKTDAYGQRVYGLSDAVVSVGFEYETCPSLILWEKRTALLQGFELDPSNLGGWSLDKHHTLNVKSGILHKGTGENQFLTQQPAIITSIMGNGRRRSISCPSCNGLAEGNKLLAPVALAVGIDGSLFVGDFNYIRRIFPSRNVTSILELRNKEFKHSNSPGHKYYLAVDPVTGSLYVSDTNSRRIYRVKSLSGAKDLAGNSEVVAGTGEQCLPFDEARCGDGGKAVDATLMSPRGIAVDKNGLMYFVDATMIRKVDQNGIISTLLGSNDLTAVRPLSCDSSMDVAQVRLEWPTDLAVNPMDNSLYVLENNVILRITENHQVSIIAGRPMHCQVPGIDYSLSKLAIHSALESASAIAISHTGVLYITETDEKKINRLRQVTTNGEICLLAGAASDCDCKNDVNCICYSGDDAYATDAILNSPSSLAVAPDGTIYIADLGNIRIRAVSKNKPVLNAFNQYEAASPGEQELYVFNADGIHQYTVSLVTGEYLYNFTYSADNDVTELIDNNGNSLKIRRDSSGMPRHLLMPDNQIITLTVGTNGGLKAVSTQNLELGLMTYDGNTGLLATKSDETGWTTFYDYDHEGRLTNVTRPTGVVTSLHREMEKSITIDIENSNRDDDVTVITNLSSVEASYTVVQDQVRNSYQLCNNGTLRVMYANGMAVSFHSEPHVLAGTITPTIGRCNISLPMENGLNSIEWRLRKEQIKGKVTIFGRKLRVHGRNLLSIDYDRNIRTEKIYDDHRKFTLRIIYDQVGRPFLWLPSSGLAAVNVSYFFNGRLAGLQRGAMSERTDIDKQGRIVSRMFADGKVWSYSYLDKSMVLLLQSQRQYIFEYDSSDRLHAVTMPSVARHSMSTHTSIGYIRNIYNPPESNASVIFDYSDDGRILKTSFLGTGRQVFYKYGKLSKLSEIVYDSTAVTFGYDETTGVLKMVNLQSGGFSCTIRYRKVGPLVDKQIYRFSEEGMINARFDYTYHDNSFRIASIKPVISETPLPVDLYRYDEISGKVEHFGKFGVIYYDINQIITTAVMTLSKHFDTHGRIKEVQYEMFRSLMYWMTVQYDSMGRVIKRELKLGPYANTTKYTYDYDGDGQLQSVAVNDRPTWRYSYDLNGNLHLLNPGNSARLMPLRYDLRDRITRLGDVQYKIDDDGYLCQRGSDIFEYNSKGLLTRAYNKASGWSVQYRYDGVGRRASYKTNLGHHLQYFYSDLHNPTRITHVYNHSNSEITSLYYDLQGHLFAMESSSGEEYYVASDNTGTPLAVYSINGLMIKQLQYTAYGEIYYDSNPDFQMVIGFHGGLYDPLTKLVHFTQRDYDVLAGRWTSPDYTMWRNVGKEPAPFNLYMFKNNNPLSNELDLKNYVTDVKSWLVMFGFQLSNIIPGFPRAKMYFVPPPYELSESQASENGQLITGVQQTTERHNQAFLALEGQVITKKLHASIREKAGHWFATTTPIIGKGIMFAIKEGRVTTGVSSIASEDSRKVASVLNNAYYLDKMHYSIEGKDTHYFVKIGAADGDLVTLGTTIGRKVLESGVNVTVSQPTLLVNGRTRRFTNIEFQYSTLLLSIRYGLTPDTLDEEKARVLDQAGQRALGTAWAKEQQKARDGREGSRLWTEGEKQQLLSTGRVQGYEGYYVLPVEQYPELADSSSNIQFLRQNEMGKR
UniProt Q9WTS6: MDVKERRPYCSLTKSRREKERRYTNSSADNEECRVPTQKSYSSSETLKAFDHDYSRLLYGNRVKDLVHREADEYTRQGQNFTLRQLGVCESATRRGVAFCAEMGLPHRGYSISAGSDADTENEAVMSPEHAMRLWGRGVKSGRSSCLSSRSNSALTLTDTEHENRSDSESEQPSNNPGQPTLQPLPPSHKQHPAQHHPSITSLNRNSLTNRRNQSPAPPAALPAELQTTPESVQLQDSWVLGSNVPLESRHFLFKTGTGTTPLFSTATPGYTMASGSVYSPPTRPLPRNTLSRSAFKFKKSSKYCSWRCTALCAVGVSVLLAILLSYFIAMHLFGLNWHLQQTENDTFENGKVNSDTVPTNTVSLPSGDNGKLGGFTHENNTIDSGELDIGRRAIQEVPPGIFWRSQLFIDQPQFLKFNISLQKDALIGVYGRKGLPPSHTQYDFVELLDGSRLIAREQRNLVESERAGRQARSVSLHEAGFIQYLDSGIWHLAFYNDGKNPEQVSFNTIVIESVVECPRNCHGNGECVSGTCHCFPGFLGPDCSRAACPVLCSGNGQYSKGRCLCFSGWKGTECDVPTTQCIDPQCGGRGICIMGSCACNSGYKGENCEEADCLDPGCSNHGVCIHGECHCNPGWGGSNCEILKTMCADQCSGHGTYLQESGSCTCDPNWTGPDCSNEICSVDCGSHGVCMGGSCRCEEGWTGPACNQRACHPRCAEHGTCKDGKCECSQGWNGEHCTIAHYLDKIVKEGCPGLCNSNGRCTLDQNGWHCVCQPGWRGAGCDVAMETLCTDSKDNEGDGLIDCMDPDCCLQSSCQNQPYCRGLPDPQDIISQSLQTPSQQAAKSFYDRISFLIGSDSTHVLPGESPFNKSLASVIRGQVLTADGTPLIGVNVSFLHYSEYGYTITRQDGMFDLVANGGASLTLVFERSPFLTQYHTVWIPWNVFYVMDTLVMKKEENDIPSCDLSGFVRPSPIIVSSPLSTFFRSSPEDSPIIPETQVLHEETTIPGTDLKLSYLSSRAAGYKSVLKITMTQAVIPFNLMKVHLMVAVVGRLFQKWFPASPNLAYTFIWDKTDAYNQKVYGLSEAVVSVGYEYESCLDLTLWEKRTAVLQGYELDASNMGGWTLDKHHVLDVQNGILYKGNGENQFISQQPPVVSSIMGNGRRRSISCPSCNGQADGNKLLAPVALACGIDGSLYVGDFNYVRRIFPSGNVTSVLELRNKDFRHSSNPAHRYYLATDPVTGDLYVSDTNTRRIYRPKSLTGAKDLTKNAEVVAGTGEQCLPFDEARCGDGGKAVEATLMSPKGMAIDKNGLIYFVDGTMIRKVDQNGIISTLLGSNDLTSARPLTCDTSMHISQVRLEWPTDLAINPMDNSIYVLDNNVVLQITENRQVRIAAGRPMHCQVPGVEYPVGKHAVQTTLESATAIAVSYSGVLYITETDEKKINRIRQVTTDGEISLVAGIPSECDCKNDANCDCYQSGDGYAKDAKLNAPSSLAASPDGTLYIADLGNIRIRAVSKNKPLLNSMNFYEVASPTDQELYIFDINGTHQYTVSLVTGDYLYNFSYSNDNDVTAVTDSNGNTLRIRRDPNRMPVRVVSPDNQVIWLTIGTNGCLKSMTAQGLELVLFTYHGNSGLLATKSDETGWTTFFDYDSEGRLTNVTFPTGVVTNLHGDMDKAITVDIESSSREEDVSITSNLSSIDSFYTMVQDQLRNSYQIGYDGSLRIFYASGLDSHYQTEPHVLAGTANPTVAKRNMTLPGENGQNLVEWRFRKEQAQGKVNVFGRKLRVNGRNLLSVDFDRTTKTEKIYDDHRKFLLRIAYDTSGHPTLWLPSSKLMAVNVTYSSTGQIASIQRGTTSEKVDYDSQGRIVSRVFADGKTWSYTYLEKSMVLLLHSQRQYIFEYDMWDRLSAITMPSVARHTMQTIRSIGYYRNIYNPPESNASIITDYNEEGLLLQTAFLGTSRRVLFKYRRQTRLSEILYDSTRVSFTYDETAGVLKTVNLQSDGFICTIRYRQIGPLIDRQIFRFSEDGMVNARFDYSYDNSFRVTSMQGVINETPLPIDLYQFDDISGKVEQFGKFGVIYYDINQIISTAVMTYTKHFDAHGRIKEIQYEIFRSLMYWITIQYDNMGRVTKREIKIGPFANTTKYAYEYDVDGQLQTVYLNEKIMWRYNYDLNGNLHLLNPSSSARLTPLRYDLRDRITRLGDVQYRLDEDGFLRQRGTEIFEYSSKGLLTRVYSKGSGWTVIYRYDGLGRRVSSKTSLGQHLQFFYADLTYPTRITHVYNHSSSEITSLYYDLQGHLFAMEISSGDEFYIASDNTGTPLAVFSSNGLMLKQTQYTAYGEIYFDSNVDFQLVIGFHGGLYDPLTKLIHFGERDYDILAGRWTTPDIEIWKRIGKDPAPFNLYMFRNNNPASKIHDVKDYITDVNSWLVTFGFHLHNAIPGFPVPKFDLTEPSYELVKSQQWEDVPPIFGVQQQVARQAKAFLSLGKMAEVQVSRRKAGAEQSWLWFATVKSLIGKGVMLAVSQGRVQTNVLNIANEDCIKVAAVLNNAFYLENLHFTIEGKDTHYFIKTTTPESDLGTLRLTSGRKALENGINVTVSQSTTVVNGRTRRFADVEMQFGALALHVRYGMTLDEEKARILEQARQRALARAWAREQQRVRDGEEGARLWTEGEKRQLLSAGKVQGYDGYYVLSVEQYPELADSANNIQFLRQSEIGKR

Experiments:
Assay in all cases: co-IP; EGFP-tagged teneurin bait (or EGFP-only control bait) co-transfected with tagRFP/Myc-tagged teneurin prey in Neuro2A cells; lysates collected after 2 DIV and immunoprecipitated with GFP-Trap agarose beads; blots probed with anti-myc tag (prey)
[1] = biological target: teneurin paralogue Tenm1, full length mouse (EGFP-tagged as bait; tagRFP/Myc-tagged as prey) (mouse) (UniProt Q9WTS4)
[2] = biological target: teneurin paralogue Tenm2, full length mouse (EGFP-tagged as bait; tagRFP/Myc-tagged as prey) (mouse) (UniProt Q9WTS5)
[3] = biological target: teneurin paralogue Tenm3, full length mouse (EGFP-tagged as bait; tagRFP/Myc-tagged as prey) (mouse) (UniProt Q9WTS6)
[4] = biological target: teneurin paralogue Tenm4, full length mouse (EGFP-tagged as bait; tagRFP/Myc-tagged as prey) (mouse) (UniProt Q3UHK6)

| binding [1] | binding [2] | binding [3] | binding [4] | Substance |
| --- | --- | --- | --- | --- |
| binds | binds | binds | binds | teneurin paralogue Tenm1, full length mouse (EGFP-tagged as bait; tagRFP/Myc-tagged as prey) (from UniProt Q9WTS4 1-2731) |
| binds | binds | binds | binds | teneurin paralogue Tenm2, full length mouse (EGFP-tagged as bait; tagRFP/Myc-tagged as prey) (from UniProt Q9WTS5 1-2764) |
| binds | binds | – | binds | teneurin paralogue Tenm3, full length mouse (EGFP-tagged as bait; tagRFP/Myc-tagged as prey) (from UniProt Q9WTS6 1-2715) |
| binds | binds | binds | binds | teneurin paralogue Tenm4, full length mouse (EGFP-tagged as bait; tagRFP/Myc-tagged as prey) (from UniProt Q3UHK6 1-2771) |
